Results taken from US20230295310A1.
Substitutions are numbered along the chain they refer to. No constants are given. Whether binding was seen depends on the method and setting.

By UniProt entry, the sequences of proteins in these tests, tags left out. Where a name states a change or a piece, a line headed by the entry shows the natural chain unless it says otherwise.
UniProt P07766: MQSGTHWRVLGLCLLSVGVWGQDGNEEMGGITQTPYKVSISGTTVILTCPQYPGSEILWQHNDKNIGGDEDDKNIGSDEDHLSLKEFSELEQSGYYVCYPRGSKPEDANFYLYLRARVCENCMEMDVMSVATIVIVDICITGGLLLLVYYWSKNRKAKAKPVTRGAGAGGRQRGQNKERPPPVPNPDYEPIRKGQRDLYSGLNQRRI
UniProt P04234: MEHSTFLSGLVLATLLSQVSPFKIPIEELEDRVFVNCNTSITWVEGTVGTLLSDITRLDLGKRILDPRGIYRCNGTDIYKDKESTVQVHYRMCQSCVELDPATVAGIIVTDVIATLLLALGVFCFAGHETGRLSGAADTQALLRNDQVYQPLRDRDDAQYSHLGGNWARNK
UniProt P09693: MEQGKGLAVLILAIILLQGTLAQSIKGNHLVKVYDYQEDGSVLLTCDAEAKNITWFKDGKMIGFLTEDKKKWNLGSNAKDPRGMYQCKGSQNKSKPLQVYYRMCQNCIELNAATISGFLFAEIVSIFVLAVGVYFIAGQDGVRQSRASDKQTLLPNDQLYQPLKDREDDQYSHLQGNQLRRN
UniProt Q95LI5: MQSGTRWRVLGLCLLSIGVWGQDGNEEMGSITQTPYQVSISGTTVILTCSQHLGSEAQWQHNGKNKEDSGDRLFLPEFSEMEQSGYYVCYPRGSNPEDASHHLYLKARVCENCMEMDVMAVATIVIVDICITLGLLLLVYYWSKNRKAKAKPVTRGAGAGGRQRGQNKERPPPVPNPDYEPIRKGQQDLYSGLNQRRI
UniProt Q95LI8: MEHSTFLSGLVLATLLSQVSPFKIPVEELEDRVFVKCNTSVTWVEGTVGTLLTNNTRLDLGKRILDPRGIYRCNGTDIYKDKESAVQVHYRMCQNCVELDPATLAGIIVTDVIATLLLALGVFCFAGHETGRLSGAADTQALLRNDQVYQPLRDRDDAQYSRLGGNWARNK
UniProt Q95LI7: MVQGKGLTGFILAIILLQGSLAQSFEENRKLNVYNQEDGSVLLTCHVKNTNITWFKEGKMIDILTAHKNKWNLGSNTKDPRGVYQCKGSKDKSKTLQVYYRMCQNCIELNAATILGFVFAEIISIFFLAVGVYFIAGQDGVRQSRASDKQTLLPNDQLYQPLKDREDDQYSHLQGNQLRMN

B1: mAb 270 (antibody, V domains shown)
VH: EIQLVESGGGLVQPGESLKLSCAGSGFTFSVSAMHWVRQASGKGLEWVGRIRNKANSYATAYDASVKGRFTLSRDDSRNTAYLQMNSLKTEDTAVYYCSSYYYLSGTYYNYWGQGTLVTVSS
VL: DIQMTQSPSSLSASVGDRVTITCRASQVIRNDLGWYQQKPGKAPKRLIHSASSLQGGVPSRFSGSGSGTEFTLTISSLQPEDFATYYCQQHNVNPCTFGQGTKLEIK
B2: mAb 272 (antibody, V domains shown)
VH: B1 VH with D63A, R78K
VL: B1 VL
B3: mAb 271 (antibody, V domains shown)
VH: B1 VH with D63A, R78K, N86D
VL: B1 VL
B4: mAb 273 (antibody, V domains shown)
VH: B1 VH with I2V, A23T, G24A, M34I, N53S, D63V, R78K, Y103F, L104V, Y111H
VL: B1 VL with V28G, N31Y, K42R, A51V, G56S, Q89L
B5: mAb 172 (antibody, V domains shown)
VH: EVQLVESGGGLVQPGRSLRLSCTTSGFTFDDYTMHWVRQVPGKGLEWVSDISWNSGSVGYADSVKGRFTISRDNAKNSLYLQMNSLRAEDTALYYCVKDSSGYGHYFHYYMDVWGKGTTVTVSS
VL: DIQMTQSPSSLSASVGDRVTITCRASQSISNYLNWYQVKPGKAPKVLIYAASSLQSGVPSRFSGSGSGTDFTLTISSLQPEDFVSYYCHQSYNAPITFGQGTRLESK
B6: mAb 173 (antibody, V domains shown)
VH: B5 VH with T23A, T24A
VL: B5 VL with A94T, S106I
B7: mAb 154 (antibody, V domains shown)
VH: QVQLMQSGSELEKPGASVKVSCKASGYTFTSFAINWVRQAPGQGLEWMGWINTITGNPSYAQGFTGRFVFSLDTSVSTAFLQINSLKTEDTAVYYCARYVTSSGKFDYWGQGTLVTVSS
VL: DIQMTQSPSSVSASVGDRVTITCRASRGISRWLDWYQQKPGKAPKLLIYAASNLQGGVPSRFSGSGSGTDFTLTIRSLQPEDFALYYCQQAKTFPFTFGPGTKVDIR
B8: mAb 77 (antibody, V domains shown)
VH: EVQLVESGGGLVQPGGSLRLSCAASGFTFSNYWMSWVRQAPGKGLEWVANIKQDGSEKYYVDSVRGRFTISRDNAKKSLYLQMNSLRAEDTAVYYCARDNSNYAYWYFDIWGRGTLVTVSS
VL: DIQMTQSPSTLSVSVGDRVTITCRASQSIRKWLAWYQQKPGKAPKLLIFKASSLESGVPSRFSGSGSGTEFTLTISSLQPDDFATYYCQQYDTYSRTFGQGTKVEIK
B9: mAb 167 (antibody, V domains shown)
VH: EVHLVESGGGLVQPGRSLRLSCAASGFTFDDYAMHWVRQAPGKGLEWVSGISWNSGTIGYADSVKGRFTISRDNAKNSLYLEMNSLRAEDTALYYCAKDSSGYGHYYHYYIDVWGTGTTVTVSS
VL: EIVMTQSPATLSVSPGGRATLSCRASQSVGSNLAWYQQKPGQAPRLLIYDASTRATGIPARFRGSGSGTEFTLTISGLQSEDFAVYYCQLYYNWPHFGQGTRLEIK
B10: mAb 161 (antibody, V domains shown)
VH: EVQLVESGGGLVQPGRSLRLSCAASGITFADYTMHWVRQAPGKGLEWVSGISWNSGSIDYADSVKGRFTISRDNAKKTLYLQMNRLRAEDTALYYCAKDSSGYGHYYFYYLDVWGKGTTVTVSS
VL: EIVMTQSPATLSVSPGERATLSCRASQSVSNNLAWYQQKPGQAPRLLIYSTSTRATGIPARFSGSRSGTEFTLTISSLQSEDSAVYYCQQYNNWPHFGQGTRLEIK

The binders below were run against T1, human CD3 expressed on cells (Jurkat cells; human primary T cells) (human) (UniProt P07766+P04234+P09693) (assay: flow cytometry, Jurkat cells).

| Binder | binding |
| --- | --- |
| B1 | no binding (tested: FOI <10 (FOI >=10 = positive); 25 nM) |
| B2 | no binding (tested: FOI <10 (FOI >=10 = positive); 25 nM) |
| B3 | no binding (tested: FOI <10 (FOI >=10 = positive); 25 nM) |

The binders below were run against cynomolgus monkey CD3 expressed on cyno primary T cells (cynomolgus monkey) (UniProt Q95LI5+Q95LI8+Q95LI7) (assay: flow cytometry, cyno primary T cells).

| Binder | binding |
| --- | --- |
| B4 | no binding (tested: FOI <10 (FOI >=10 = positive); 25 nM) |
| B5 | no binding (tested: FOI <10 (FOI >=10 = positive); 25 nM) |
| B6 | no binding (tested: FOI <10 (FOI >=10 = positive); 25 nM) |

Each binder was assayed against cynomolgus monkey CD3 expressed on primary T cells (cynomolgus monkey) (UniProt Q95LI5+Q95LI8+Q95LI7) (assay: flow cytometry, 25 nM, cyno primary T cells).

| binding | Binder |
| --- | --- |
| no binding (tested: FOI >=10 = positive) | B7 |
| no binding (tested: FOI >=10 = positive) | B8 |
| no binding (tested: FOI >=10 = positive) | B9 |
| no binding (tested: FOI >=10 = positive) | B10 |

These binders were tested against T1, human CD3 expressed on cells (Jurkat cells; human primary T cells) (human) (assay: flow cytometry, human primary T cells).

| Binder | binding |
| --- | --- |
| B1 | no binding (tested: FOI <10 (FOI >=10 = positive); 25 nM) |
| B2 | no binding (tested: FOI <10 (FOI >=10 = positive); 25 nM) |
| B3 | no binding (tested: FOI <10 (FOI >=10 = positive); 25 nM) |
